Data reported in PMC6658569.
These are yes or no findings as the source states them, for the method shown. Binding calls can cover weak binding; strength is not graded here.

What was measured:
Test in all cases: MST; NfrA, HtrE or YhcD labelled with NHS ester fluorescent dye, 20 uM; serial dilutions of unlabelled human complement C3 in PBS; 5 min at room temperature; NanoTemper Monolith NT.115; both purified
YhcD (E. coli) = target: T1, YhcD (E. coli) (UniProt P45420)
T1 sequence (chain, NHS ester fluorescent dye (in the MST assay only)): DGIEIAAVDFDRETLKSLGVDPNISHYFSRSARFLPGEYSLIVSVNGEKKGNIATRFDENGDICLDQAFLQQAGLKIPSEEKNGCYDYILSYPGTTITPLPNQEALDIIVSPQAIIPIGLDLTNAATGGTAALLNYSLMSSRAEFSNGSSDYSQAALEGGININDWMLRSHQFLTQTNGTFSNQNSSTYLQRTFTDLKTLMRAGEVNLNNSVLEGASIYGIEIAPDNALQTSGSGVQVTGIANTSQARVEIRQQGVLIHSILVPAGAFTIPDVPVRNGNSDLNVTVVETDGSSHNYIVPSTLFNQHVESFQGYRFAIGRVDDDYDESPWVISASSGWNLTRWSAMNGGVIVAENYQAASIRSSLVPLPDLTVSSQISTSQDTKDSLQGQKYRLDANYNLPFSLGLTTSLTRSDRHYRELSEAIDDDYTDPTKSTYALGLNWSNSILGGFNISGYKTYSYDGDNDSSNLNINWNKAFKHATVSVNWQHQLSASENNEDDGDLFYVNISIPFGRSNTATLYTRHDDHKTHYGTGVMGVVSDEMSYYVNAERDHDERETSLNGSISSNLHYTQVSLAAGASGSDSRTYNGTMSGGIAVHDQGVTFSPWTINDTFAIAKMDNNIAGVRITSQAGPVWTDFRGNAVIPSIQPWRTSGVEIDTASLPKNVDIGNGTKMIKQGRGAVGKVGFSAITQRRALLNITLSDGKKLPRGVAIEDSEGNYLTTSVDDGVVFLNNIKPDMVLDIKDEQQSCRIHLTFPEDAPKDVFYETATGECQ

HtrE (E. coli) = target: T2, HtrE (E. coli) (UniProt P33129)
T2 sequence (chain, NHS ester fluorescent dye (in the MST assay only)): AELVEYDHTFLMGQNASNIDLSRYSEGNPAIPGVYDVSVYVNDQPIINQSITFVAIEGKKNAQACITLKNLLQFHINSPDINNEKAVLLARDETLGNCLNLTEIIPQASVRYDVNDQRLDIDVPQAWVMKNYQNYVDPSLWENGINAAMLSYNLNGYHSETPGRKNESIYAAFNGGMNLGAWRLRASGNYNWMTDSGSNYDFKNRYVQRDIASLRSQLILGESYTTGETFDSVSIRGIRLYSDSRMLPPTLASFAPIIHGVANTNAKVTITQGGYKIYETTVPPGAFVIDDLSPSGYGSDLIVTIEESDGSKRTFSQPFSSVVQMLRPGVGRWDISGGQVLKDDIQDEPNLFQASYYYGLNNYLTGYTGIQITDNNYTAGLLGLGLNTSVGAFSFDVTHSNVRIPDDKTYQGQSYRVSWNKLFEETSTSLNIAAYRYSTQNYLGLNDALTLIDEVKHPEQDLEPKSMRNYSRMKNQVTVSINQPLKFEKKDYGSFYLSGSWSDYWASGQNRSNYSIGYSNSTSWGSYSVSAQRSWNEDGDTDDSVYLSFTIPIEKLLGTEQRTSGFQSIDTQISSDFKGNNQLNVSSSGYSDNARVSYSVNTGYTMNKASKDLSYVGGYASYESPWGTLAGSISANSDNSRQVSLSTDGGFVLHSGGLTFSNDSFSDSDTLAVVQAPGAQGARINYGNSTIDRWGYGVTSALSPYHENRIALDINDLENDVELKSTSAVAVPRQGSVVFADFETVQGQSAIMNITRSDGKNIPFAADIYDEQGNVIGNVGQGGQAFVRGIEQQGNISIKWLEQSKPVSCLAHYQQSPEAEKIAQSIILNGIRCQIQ

NfrA (E. coli) = target: T3, NfrA (E. coli) (UniProt P31600)
T3 sequence (chain, NHS ester fluorescent dye (in the MST assay only)): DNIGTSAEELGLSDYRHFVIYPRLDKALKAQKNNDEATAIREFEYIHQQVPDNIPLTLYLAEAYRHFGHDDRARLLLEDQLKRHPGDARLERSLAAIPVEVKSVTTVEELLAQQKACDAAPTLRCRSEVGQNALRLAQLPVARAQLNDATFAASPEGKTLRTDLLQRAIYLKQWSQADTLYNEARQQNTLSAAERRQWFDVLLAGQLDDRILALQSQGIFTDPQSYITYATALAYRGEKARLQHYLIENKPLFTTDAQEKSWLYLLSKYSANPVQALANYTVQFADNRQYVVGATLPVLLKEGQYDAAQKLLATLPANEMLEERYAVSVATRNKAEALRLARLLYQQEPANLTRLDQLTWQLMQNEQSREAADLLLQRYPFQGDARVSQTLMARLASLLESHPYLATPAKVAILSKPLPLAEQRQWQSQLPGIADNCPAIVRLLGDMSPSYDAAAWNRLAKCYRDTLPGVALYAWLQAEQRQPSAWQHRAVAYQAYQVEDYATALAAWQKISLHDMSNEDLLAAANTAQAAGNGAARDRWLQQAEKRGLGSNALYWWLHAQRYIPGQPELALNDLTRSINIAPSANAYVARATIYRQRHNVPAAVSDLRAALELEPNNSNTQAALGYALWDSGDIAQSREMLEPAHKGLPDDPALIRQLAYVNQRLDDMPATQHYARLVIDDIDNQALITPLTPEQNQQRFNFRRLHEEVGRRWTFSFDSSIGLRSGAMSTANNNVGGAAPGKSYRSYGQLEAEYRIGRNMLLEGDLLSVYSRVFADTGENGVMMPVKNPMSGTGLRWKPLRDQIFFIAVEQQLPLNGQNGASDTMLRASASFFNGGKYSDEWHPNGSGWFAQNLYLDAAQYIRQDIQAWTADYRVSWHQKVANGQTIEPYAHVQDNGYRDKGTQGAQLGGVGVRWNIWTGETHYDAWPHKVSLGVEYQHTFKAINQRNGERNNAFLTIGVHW

Measured: binding

human complement C3
binds: YhcD (E. coli) | HtrE (E. coli) | NfrA (E. coli)
